Results are given in words; binding and its absence hold for the method and conditions named. Tags and fused reporters may be left off the sequences shown.
Molecular target: recombinant full-length human Sialin, FLAG-tagged (human) (UniProt Q9NRA2)
Assay: cryo-EM micrographs and 2D classification

binding: no binding
B1: recombinant full-length human Sialin, FLAG-tagged (protein, UniProt Q9NRA2 1-495)
chain: MRSPVRDLARNDGEESTDRTPLLPGAPRAEAAPVCCSARYNLAILAFFGFFIVYALRVNLSVALVDMVDSNTTLEDNRTSKACPEHSAPIKVHHNQTGKKYQWDAETQGWILGSFFYGYIITQIPGGYVASKIGGKMLLGFGILGTAVLTLFTPIAADLGVGPLIVLRALEGLGEGVTFPAMHAMWSSWAPPLERSKLLSISYAGAQLGTVISLPLSGIICYYMNWTYVFYFFGTIGIFWFLLWIWLVSDTPQKHKRISHYEKEYILSSLRNQLSSQKSVPWVPILKSLPLWAIVVAHFSYNWTFYTLLTLLPTYMKEILRFNVQENGFLSSLPYLGSWLCMILSGQAADNLRAKWNFSTLCVRRIFSLIGMIGPAVFLVAAGFIGCDYSLAVAFLTISTTLGGFCSSGFSINHLDIAPSYAGILLGITNTFATIPGMVGPVIAKSLTPDNTVGEWQTVFYIAAAINVFGAIFFTLFAKGEVQNWALNDHHGHRH
